Part of at least one peptide drawing is inferred or uncertain, most often the ends. Residues, ends and D or L forms follow the SMILES beside them. *: point of attachment. X1 = OC[C@H]1OC(*)[C@H](O)[C@@H](O)[C@@H]1O
What was measured:
[1] = test system: human umbilical vascular endothelial cells (HUVEC); test: NO production assay (DAF-FM fluorescence, microplate reader); type: cell-based; details: 5 minutes exposure
Description: NO production assay. As a screen for mechanisms of action of oligopeptides of the invention, the ability to increase NO production of three oligopeptides of the invention (PN-A3, PN-A4 and PN-A5) were characterized and compared to native Ang-(1-7). Human umbilical vascular endothelial cells (HUVEC) culture plates received fluorescence reaction buffer (0.2 M phosphate buffer, pH 7, 1 mM EDTA, 0.1% glucose) containing diaminofluorescein-FM diacetate (DAF-FM, 1 μM) to measure real-time NO production. Time-resolved (10 minutes) fluorescent intensity was detected using a BioTek Synergy 2 microplate reader with excitation at 485 nm and emission at 535 nm. DAF-FM is a sensitive flourometric derivative for the selective detection of NO in live cells.
Values were normalized to control fluorescence.

[2] = test system: BALB/cAnNHsd mice with intramedullary 66.1 cells (CIBP); test: Established CIBP, acute behavioral testing (flinching/guarding); type: in vivo
Description: Animals: Female BALB/cAnNHsd mice (Harlan, Ind., USA) between 15 and 20 g were used in this study. Mice were housed in a climate control room on a 12-hour light/dark cycle and allowed food and water ad libitum. Animals were monitored on days 0, 7, 10, and 14 of the study for clinical signs of rapid weight loss and signs of distress.
All intraperitoneal (i.p.) injections were made at a volume of 10 mL/kg.
Arthrotomy—Intramedullary Implantation of 66.1 Cells: To induce CIBP, an arthrotomy was performed. Briefly, animals were anesthetized with 80 mg/kg ketamine-12 mg/kg xylazine (in a 10 mL/kg volume). The surgical area was shaved and cleaned with 70% ethanol and betadine. The condyles of the right femur were exposed and a burr-hole (0.66 mm) was drilled to create a space for the 66.1 cell inoculation. A 5 μl volume of 66.1 cells (8,000 cells per 1 μl) in MEM (or 5 μl MEM without cells in sham animals) was injected into the intramedullary space of the mouse femora. Proper placement of the injector was confirmed by radiograph (Faxitron X-ray imaging). Holes were sealed with bone cement and the patella reset. Muscle and skin were closed in separate layers with 5-0 vicryl suture and wound autoclips, respectively. Animals were given 8 mg/kg (10 mL/kg volume) gentamicin to prevent infection. Staples were removed 7 days post-surgery.
Acute Behavioral Testing: Fourteen days post-surgery, baseline behaviors of spontaneous flinching/guarding were recorded. Flinching was characterized by the lifting and rapid flexing of the hind paw ipsilateral to femoral inoculation when not associated with walking or other movement. Guarding was characterized by the lifting the inoculated hind limb into a fully retracted position under the torso. The total number of flinches and the time spent guarding 2 min duration was recorded. […] Antagonists were administered 30 minutes prior to Ang-(1-7). Following administration, animals were tested at over a three-hour time course until their pain behaviors returned to baseline

[3] = test system: BALB/cAnNHsd mice with intramedullary 66.1 cells (CIBP); test: Established CIBP, chronic behavioral testing (daily dosing day 7-14); type: in vivo; details: 0.058 μg/kg i.p. daily, days 10 and 14 post-surgery, 15 minutes post-treatment
66.1-inoculated mice = test: Nesting behavior in mice with established CIBP; type: in vivo; details: 0.058 μg/kg i.p., post-surgical day 15
[4] = test system: 66.1 tumor in mouse femur; test: Tumor burden in femur after chronic administration (H&E histology); type: in vivo, mice; details: repeated administration, p=0.3
66.1 cells = test: XTT cell viability assay; type: cell-based, murine; details: 24 hr
[5] = test system: ipsilateral femur of mice with established CIBP; test: Bone remodeling in established CIBP (radiographs, serum CTX); type: in vivo
[6] = test system: human umbilical vascular endothelial cells (HUVEC); test: xCELLigence RTCA cell activation (cell impedance); type: cell-based
From the text: Cell culture. To isolate primary hippocampal CA1 neuronal cells, whole brain was removed from neonatal rat pups (1-2 day old) and the cortices dissected away. The hippocampus was isolated and the CA1 field was excised and placed in buffer. After gentle disruption in digestion buffer, the cells were counted, placed in culture media, and plated in a 96-well format coated with poly-d-lysine. At the time of plating, cells were approximately at 50% density and were allowed to culture to 70-80% density before starting the assay. Commercially available HUVEC (Life Technologies/Thermo Fisher) was thawed and plated (5000-10,000 cells/well) in a 96-well format coated with gelatin. HUVEC cells were allowed to culture overnight before starting the assay.
Cell Activation: The xCELLigence system Real-Time Cell Analyzer (RTCA), developed by Roche Applied Science, uses microelectronic biosensor technology to do dynamic, real-time, label-free, and non-invasive analysis of cellular events including G-protein receptor activation of cells. The RTCA analysis was utilized to measure the potency and relative ability of oligopeptides of the invention and native Ang-(1-7) to activate human umbilical vascular endothelial cells (HUVEC) in culture. Following uniform cellular adherence based on a linear increase in cell impedance (CI), HUVECs were treated with Ang-(1-7) and oligopeptides of the invention. […]

[7] = test system: mice with 66.1 cells in the femur (CIBP); test: Cancer induced bone pain (CIBP), single dose PN-A5: flinching, guarding, tactile allodynia; type: in vivo; details: 800 μg/kg i.p.

For CC[C@H](C)[C@H](NC(=O)[C@H](Cc1ccc(O)cc1)NC(=O)[C@@H](NC(=O)[C@H](CCCNC(=N)N)NC(=O)[C@@H](N)CC(=O)O)C(C)C)C(=O)N[C@@H](Cc1c[nH]cn1)C(=O)N1CCC[C@H]1C(=O)O [Ang-(1-7), Asp-Arg-Val-Tyr-Ile-His-Pro], the “NO production versus control levels (relative peak fluorescence intensity)” value [1] was “significant elevation of NO over control levels”, the “pain behaviors, Ang-(1-7) alone” value ([2]; 0.058 μg/kg i.p., 14 days post-femur inoculation, p<0.01) was “reduced pain behaviors” and the “persistence of reduction in spontaneous pain behaviors” value ([2]; 0.36 or 1 μg/kg i.p.) was about 2 h. The “onset of reduction in spontaneous pain behaviors” value ([2]; 0.36 or 1 μg/kg i.p., after injection) was 15 min, the “maximum effect in reducing guarding behavior” value ([2]; at 15 min (time of peak effect)) was 52.75% and the “A90 dose for reducing guarding behavior” value ([2]; at 15 min, from dose response curve) was 0.058 µg/kg. For the same compound, the “guarding and flinching after repeated daily administration” value [3] was “significant (p<0.0001, n=12) reduction in guarding”, the “nesting behaviors (zones cleared)” value (66.1-inoculated mice) was “does not further alter these complex behaviors” and the “percent tumor of the bone versus saline-treated group” value [4] was “did not significantly increase nor decrease the percent tumor of the bone”. The “relative absorbance (RA±SD), cell viability” value (“relative absorbance (RA±SD)” for short) (66.1 cells; 1 ng) was 0.93±0.11, the “relative absorbance (RA±SD)” value (66.1 cells; 10 ng) was 0.93±0.07 and the “relative absorbance (RA±SD)” value (66.1 cells; 100 ng) was 0.78±0.11. The “relative absorbance (RA±SD)” value (66.1 cells; 1000 ng) was 0.93±0.13, the “bone remodeling of the ipsilateral femur” value ([5]; daily administration) was “did not significantly influence bone remodeling” and the “serum carboxy-terminal collagen crosslinks (CTX) levels versus 66.1 saline treated group” value ([5]; repeated administration) was “did not significantly alter CTX levels”.

In the case of CC[C@H](C)[C@H](NC(=O)[C@H](Cc1ccc(O)cc1)NC(=O)[C@@H](NC(=O)[C@H](CCCNC(=N)N)NC(=O)[C@@H](N)CC(=O)O)C(C)C)C(=O)N[C@@H](Cc1c[nH]cn1)C(=O)N[C@@H](COC1O[C@H](CO)[C@@H](O)[C@H](O)[C@H]1O)C(N)=O (stereo partly drawn) [PN-A5, Ang 1-6-Ser(OGlc)-NH2] (H-DRVYIHS(X1)-NH2), the “increase in cell impedance (CI) over the native Ang-(1-7)” value ([6]; 10 nM) was about 2 fold, the “increase in cell impedance (CI) over the native Ang-(1-7)” value ([6]; 100 nM) was about 2 fold and the “NO production versus control levels (relative peak fluorescence intensity)” value [1] was “significant elevation of NO over control levels”. For the same compound, the “NO production versus native Ang-(1-7)” value ([1]; p<0.05) was “significantly enhancing NO production over that seen with native Ang-(1-7)”, the “time of peak effect, all measurements” value [7] was 15 to 30 min and the “cancer-induced tactile hypersensitivity (von Frey)” value ([7]; 30 minutes after injection, p<0.01) was “significantly attenuated”. For the same compound, the “duration of significant reversal of guarding” value ([7]; day 7) was 30 min, the “duration of significant reversal of spontaneous flinching” value ([7]; day 7) was 60 min and the “time at which behaviors returned to post-surgery values” ([7]; post-injection) was 90 min.

Source: patent US10183055B2, “Ang-(1-7) derivative oligopeptides for the treatment of pain and other indications” (ARIZONA BOARD OF REGENTS ON BEHALF OF THE UNIVERSITY OF …, priority 2014, dated 2019)
